From ChEMBL document CHEMBL3988442, “University of Dundee, Small-Polar-MMV Screening Library” (2021).

Values are the deposited “Percent Effect”, in %.
The controls that fix the scale are not given in the record; negative values are as filed.
The compounds are a random part of those screened.
Two or more numbers in one place are separate tests of the same structure; such repeats can differ widely.

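Viability assay of Plasmodium falciparum sporozoites; the read-out is not stated. The concentration is filed as 10 mM, unlikely as a test dose, so the dose is not known. Direction is inferred from retests: higher values go with lower viability. Strong results were mostly tested again. About 34,000 compounds were tested under these conditions; 0.84% (about 280) showed 50% or more at least once.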

compound	percent effect
N#Cc1cccc(N2CC3(CCN(C(=O)c4ccnnc4)C3)CC2=O)c1 (centres unmarked)	-20.44
CCCc1nc(CN(CC)C(=O)c2ccc3ncsc3c2)no1	-41.93 & -32.57
[H][C@@]12C[C@H](c3nc(C)no3)O[C@]1([H])CCN(C(=O)Cc1ccsc1)C2	5.839
COc1ccccc1OCCc1cc(C2CCNC2)n[nH]1.Cl.Cl (centres unmarked)	5.15 & -324.6 & -356.4
[H][C@]12CNCCN1C[C@@H](C(=O)OCC)[C@@H]2c1ccccc1	-35.97
COCC1CN(c2ccc(C)nn2)Cc2cnn(C)c21.O=C(O)C(F)(F)F.O=C(O)C(F)(F)F (centres unmarked)	-1.906
CC(C(=O)NCc1ccc(N2CCNC(=O)C2)cc1)n1cncn1 (centres unmarked)	5.887
Cc1cc(CN(C)C(=O)NCC2CCS(=O)(=O)C2)no1 (centres unmarked)	-6.02
Cc1noc(-c2ccc(N[C@H]3CCCCNC3=O)nc2)n1	-12.6
OCCn1cc(CN2CCN(CCOc3cccc(F)c3)CC2)cn1	-4.736
O=C1OC2(CCN(C3CCCOC3)CC2)CN1CCc1ccccc1 (centres unmarked)	6.325
[H][C@@]12OCCN(c3ncccn3)[C@@]1([H])CC[C@H]2OCc1cccnc1	-39.48
CC(C)C(NC(=O)c1ccc(Cl)cc1Cl)C(=O)Nc1ccn(C)n1 (centres unmarked)	-7.898
CN(C)CCn1c(=O)oc2ccc(NC(=O)C3CCCO3)cc21 (centres unmarked)	-11.8
COc1cccc(CNCc2ccc(NC(=O)NC(C)C)cc2)c1	-2.431
COc1cc(OC)cc(C(=O)N2CCOCC2c2[nH]ncc2C)c1 (centres unmarked)	4.681
COc1ccc(C(=O)N2CCCS2(=O)=O)cc1OC	10.84
CC(C)[C@H]1CN(CCCO)C[C@@H]1NC(=O)CCS(C)(=O)=O	0.7692
COCC(O)CNC(=O)c1coc(COc2ccc3sc(C)nc3c2)n1 (centres unmarked)	-6.257
[H][C@@]12CS(=O)(=O)C[C@]1([H])N(Cc1ccc(CCC)o1)CCN2C(=O)C(C)C	-1.338
Cc1cc(Cc2cccc(C(F)(F)F)c2)cc(C2CCCNC2)n1 (centres unmarked)	4.537
CC(Cn1ccnc1)NCc1cc(Br)c2c(c1)OCO2.Cl (centres unmarked)	-32.99
Cn1cccc(NC(=O)N2CCC(CSc3ccccc3)C2)c1=O (centres unmarked)	-12.34
CC(=O)N1CCc2nc(-c3ccc(F)cc3)nc(NC(C)C)c2CC1	16.77
COC(=O)CSCc1noc(-c2ccc(Cl)cc2)n1	72.7 & 74.65
COc1ccc(S(=O)(=O)C(C)C(=O)NCCOc2cccc(C)c2)cc1 (centres unmarked)	-12.4
CCN1CCC(NC(=O)CN2CCCCC2Cn2cncn2)CC1 (centres unmarked)	49.13 & -13.73 & -12.4
CN(C)C(=O)N1CCCC2(CCN(c3ccsc3)C2=O)C1 (centres unmarked)	-8.073
COc1cccc(OCCNCc2c(C)nn(C)c2N(C)C)c1	3.627
Cc1cnn(C2CCCN(C(=O)CCCc3ccccn3)C2)c1 (centres unmarked)	8.091
OCCc1cn(CC2CCCN(Cc3nccs3)C2)nn1 (centres unmarked)	2.756
FC(F)(F)Cn1ccnc1CN1CCOC(Cn2cccn2)C1 (centres unmarked)	0.2387
CCN1CC(O)CN(C(=O)c2ccc(SC)cc2)CC1=O (centres unmarked)	-21.25
COc1cc(F)cc(NC(=O)NCc2cccc(N(C)C)n2)c1	-6.326
OC1(CN2CCOC(Cn3cccn3)C2)CCCCC1 (centres unmarked)	12.63
CCc1ccc(CN2CCC3(CC2)NC(=O)CC3c2ccncc2)o1.O=C(O)C(F)(F)F.O=C(O)C(F)(F)F (centres unmarked)	-11.74
CCc1nnc2n1CCN(C(=O)CN(C)Cc1ccccc1)C2	1.059
CN(C(=O)CNc1ccc(C#N)cc1)C1CCCCC1	-23.92
CCCNC(=O)CN1CCC(C(=O)Nc2cnn(CC)c2)CC1	6.275
COc1ccccc1N1CCC(CNCc2cccc(C#N)c2)C1 (centres unmarked)	6.24
O=C(CN1CCCC1)N1CCCC(c2cc(=O)n3c(n2)CCCCC3)C1 (centres unmarked)	3.839
Cc1ccnc(C2CN(c3ncccn3)C2)n1	5.929
O=C(O)C(F)(F)F.[H][C@]12CCC[C@@]1(COCc1ccccn1)CN(C(=O)c1ccnnc1)C2	2.497
CCn1cc(CN2CCCN(C(=O)c3ccc(C)nc3)CC2)cn1	-2.687
CN(C)c1cc(C(=O)N2CCCC(n3cccn3)C2)ccn1 (centres unmarked)	2.254
Cc1cc(CN2CCN(C(C)c3nc(C4CC4)no3)CC2)no1 (centres unmarked)	4.773
CCOCCN1CCN(Cc2coc(-c3cccc(F)c3)n2)CC1	-31.92 & 1.106 & 9.345
CS(=O)(=O)N1CCCC1c1cccc(Nc2nccs2)n1 (centres unmarked)	14.68
[H][C@@]12CCN(C(=O)NC(C)C)[C@@]1([H])CC(=O)N2Cc1cccnc1	-7.268
CN(Cc1ccncc1)c1cncc(Br)c1	-0.3581
CCn1cc(NC(=O)NCc2ccc3c(c2)OCCO3)cn1	2.667 & -12.13 & 14.35
O=C1CCC2(CCCN(C(=O)c3cccnc3)CC2)N1 (centres unmarked)	11.46
CCCc1noc(-c2ccc(-n3ncc(C(=O)O)c3C)nc2)n1	-18.32 & -20.67
CC(C)C(CCO)NC(=O)Nc1ccc(-c2csnn2)cc1 (centres unmarked)	-0.7785
CC[C@@H]1N(Cc2ccco2)CCC[C@]12CCC(=O)N2C.O=C(O)C(F)(F)F	-87
CC(C)C1CN(C(=O)c2ccc(C(N)=O)cc2)CCS1 (centres unmarked)	-1.745
Cc1nnc(N2CCCC3(CN(Cc4ccncc4)CCO3)C2)o1.O=C(O)C(F)(F)F.O=C(O)C(F)(F)F (centres unmarked)	12.44
Cl.c1ccc(-c2ccc(C3CNCCO3)nc2)cc1 (centres unmarked)	93.99 & 69.13 & 81.53
CNS(=O)(=O)c1cccc(C(C)NCc2ccc(F)cc2F)c1 (centres unmarked)	-4.94
NC(=O)NC(=O)CCN1CCCC1c1cccc2c1OCCO2 (centres unmarked)	-9.314
COc1ccc(C(CNC(=O)c2c(C)noc2C)N(C)C)cc1 (centres unmarked)	23.6 & 18.5 & 5.959
Cc1cc(NC(=O)NCC(O)c2ccc(Cl)cc2Cl)n(C)n1 (centres unmarked)	-5.276
Cc1ccccc1C(=O)N1Cc2c(Cn3ccnc3)nn(C)c2C1.O=C(O)C(F)(F)F	-9.983
CCn1cc(CNC2CC(=O)N(CCc3cccc(Cl)c3)C2)cn1 (centres unmarked)	-9.261
CCCC(C)C(=O)Nc1ccc(OC)nc1N1CCN(C(C)=O)CC1 (centres unmarked)	8.013
CC(C)CN1C(=O)CC[C@]12CC[C@@H](NC(=O)NCc1cccnc1)CC2.O=C(O)C(F)(F)F	-7.531
COc1ccc2cc(C(=O)N3CC[C@H](CO)[C@H](O)C3)n(C)c2c1	-6.284
CO[C@@H]1CC[C@@H](N(C)C(=O)c2cn3cc(C)ccc3n2)[C@H]1O	5.633
O=C(NCC(O)c1ccccc1Cl)c1cccc(-n2cnnn2)c1 (centres unmarked)	12.63
CNC(=O)c1cccc(CN2CCC(N(C)Cc3ncc(C)o3)C2)c1 (centres unmarked)	9.111
Cc1cc(C(=O)N2CCCC3(CN(C)C(=O)O3)C2)c2ccc(F)cc2n1 (centres unmarked)	-0.5917
CC(C)C(=O)NC(Cc1cc(N(C)C)nc(C2CC2)n1)c1ccccc1 (centres unmarked)	-2.98
Cc1cncnc1C1CCN(CC(N)=O)CC1	-1.279
[H][C@@]12CCCN1C[C@@H](CCSC)N(Cc1cnn(CC)c1C)C2	5.041

The first 5 entries again:

compound,percent effect
N#Cc1cccc(N2CC3(CCN(C(=O)c4ccnnc4)C3)CC2=O)c1 (centres unmarked),-20.44
CCCc1nc(CN(CC)C(=O)c2ccc3ncsc3c2)no1,-41.93 & -32.57
[H][C@@]12C[C@H](c3nc(C)no3)O[C@]1([H])CCN(C(=O)Cc1ccsc1)C2,5.839
COc1ccccc1OCCc1cc(C2CCNC2)n[nH]1.Cl.Cl (centres unmarked),5.15 & -324.6 & -356.4
[H][C@]12CNCCN1C[C@@H](C(=O)OCC)[C@@H]2c1ccccc1,-35.97